PubChem BioAssay AID1259254 | NCATS, 2017
Test: 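Finding genes that stop cells copying their DNA twice in one cycle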 (primary screen). Cell system: human HCT116 colorectal cancer cells. Reagent: single siRNA against human genes. Timing: 3 days. Measurement: 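Nuclei stained with Hoechst and imaged; cell-cycle phase assigned by DNA content; G2 share scaled per plate, non-targeting siRNA 0%, GMNN siRNA 100%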. Scale: G2 robust z-score and G2 cells, % of GMNN control: higher = more G2 cells, more excess DNA replication; raw share of cells in G2: higher = larger share of cells with G2 DNA content. Rule for the call: 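An siRNA counts as active if its G2 robust z-score lies at least 5 MADs above the screen median; here such calls match roughly 38% of GMNN control or more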.
In all, the deposit lists about 59,000 reagents; this is a part drawn at random. About 1,550 of them (2.6%) were called active. 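G2 share is only a proxy for re-replication; each gene was hit by three separate siRNAs, and active genes were retested.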 Raw values vary from plate to plate and are shown uncorrected. Unmarked entries are inactive. The numbers tell different reagents against one gene apart. No sequences are given here. Not given: the amount of reagent.

gene | siRNA no. | G2 robust z-score | G2 cells, % of GMNN control | raw share of cells in G2 (%)
RPA2 | 1 | -0.776 | -2.49 | 3.32
RPA2 | 2 | -0.823 | -2.83 | 3.6
RPA2 | 3 | 9.33 (active) | 68.6 | 28.6
TMEM89 | 1 | 0.835 | 8.85 | 7.04
TMEM89 | 2 | 0.0574 | 3.37 | 4.69
TMEM89 | 3 | -0.45 | -0.198 | 3.05
MIX23 | 1 | 0.577 | 7.03 | 6.82
MIX23 | 2 | 1.14 | 11 | 6.6
MIX23 | 3 | -0.392 | 0.209 | 2.65
GPR171 | 1 | 1.41 | 12.9 | 10.5
GPR171 | 2 | 2.34 | 19.4 | 11.3
GPR171 | 3 | 0.732 | 8.12 | 5.76
KRTAP5-7 | 1 | 2.51 | 20.6 | 11.8
KRTAP5-7 | 2 | 0.455 | 6.17 | 8.57
KRTAP5-7 | 3 | 1.87 | 16.1 | 11.2
FXYD3 | 1 | 1.79 | 15.6 | 11
FXYD3 | 2 | 0.261 | 4.81 | 6.41
FXYD3 | 3 | -0.278 | 1.01 | 4.77
UNC5A | 1 | 0.584 | 7.08 | 8.96
UNC5A | 2 | 0.39 | 5.71 | 7.42
UNC5A | 3 | 0.061 | 3.4 | 5.76
CCDC90B | 1 | 0.763 | 8.34 | 8.21
CCDC90B | 2 | -0.212 | 1.48 | 5.27
CCDC90B | 3 | 0.732 | 8.12 | 4.84
TRIM43 | 1 | -0.632 | -1.48 | 4.33
TRIM43 | 2 | 3.68 | 28.8 | 15.4
TRIM43 | 3 | 1.8 | 15.6 | 12.9
MMP28 | 1 | -0.39 | 0.224 | 5.69
MMP28 | 2 | 0.542 | 6.78 | 6.71
MMP28 | 3 | 0.265 | 4.83 | 6.06
